Reference: PubChem BioAssay (EPA / NIEHS)
Several values for one entry are separate records, joined by “and”; a condition that tells them apart may be missing. Identical values can stand only once. Inconclusive means that the source gave no clear call. Such entries were picked first, then a sample of the others. Where the call is inconclusive, the potency comes from a doubtful curve fit. The source holds several records for some structures; these can differ, active in one and inactive in another. Activity calls are given as the source filed them. How the source made its calls: active means hit-call score of the fitted dose curve at least 0.9, where 1 is the maximum; inconclusive means response in the unintended direction; inactive means score below 0.9.

Chains of the proteins cited; added tags and fusions are not shown. Lines headed by an entry give the natural chain unless they say otherwise; changes in a name come on top.
UniProt P10276, whole entry, looked up: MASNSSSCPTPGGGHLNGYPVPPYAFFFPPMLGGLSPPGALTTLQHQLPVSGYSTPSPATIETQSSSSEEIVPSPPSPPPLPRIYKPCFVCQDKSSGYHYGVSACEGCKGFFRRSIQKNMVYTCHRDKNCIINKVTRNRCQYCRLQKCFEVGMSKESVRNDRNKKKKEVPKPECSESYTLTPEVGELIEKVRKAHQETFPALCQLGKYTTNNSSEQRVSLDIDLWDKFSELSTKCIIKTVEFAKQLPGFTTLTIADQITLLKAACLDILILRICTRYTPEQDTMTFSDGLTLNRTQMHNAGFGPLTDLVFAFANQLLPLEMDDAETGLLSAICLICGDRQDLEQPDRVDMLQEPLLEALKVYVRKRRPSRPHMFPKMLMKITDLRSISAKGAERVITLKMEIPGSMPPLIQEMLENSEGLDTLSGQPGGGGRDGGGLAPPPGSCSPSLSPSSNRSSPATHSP
UniProt P37231: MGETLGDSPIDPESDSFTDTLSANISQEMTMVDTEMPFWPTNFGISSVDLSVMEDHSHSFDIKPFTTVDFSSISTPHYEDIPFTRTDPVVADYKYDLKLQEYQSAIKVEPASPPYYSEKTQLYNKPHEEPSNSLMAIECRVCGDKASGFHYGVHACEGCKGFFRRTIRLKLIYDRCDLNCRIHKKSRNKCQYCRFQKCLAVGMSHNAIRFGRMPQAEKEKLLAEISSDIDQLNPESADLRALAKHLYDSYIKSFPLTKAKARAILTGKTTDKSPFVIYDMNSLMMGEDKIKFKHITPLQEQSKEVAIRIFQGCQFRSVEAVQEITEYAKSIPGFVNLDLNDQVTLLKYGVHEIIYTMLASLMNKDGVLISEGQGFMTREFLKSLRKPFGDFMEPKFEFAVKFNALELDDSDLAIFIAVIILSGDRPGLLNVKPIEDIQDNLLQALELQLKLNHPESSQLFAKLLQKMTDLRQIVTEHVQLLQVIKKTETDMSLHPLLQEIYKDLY
UniProt Q92753: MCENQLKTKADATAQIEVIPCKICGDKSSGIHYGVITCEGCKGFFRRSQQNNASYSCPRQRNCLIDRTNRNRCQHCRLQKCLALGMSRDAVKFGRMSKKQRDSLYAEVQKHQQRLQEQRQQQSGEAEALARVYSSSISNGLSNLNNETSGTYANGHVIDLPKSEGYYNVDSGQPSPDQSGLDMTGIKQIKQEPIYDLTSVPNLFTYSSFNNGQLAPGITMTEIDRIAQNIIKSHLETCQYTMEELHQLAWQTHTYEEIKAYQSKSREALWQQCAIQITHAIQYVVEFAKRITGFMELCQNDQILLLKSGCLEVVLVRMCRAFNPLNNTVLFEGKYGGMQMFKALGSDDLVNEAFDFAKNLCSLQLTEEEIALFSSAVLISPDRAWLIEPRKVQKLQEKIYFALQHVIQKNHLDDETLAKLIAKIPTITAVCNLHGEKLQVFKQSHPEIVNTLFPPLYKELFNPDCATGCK
UniProt P51449: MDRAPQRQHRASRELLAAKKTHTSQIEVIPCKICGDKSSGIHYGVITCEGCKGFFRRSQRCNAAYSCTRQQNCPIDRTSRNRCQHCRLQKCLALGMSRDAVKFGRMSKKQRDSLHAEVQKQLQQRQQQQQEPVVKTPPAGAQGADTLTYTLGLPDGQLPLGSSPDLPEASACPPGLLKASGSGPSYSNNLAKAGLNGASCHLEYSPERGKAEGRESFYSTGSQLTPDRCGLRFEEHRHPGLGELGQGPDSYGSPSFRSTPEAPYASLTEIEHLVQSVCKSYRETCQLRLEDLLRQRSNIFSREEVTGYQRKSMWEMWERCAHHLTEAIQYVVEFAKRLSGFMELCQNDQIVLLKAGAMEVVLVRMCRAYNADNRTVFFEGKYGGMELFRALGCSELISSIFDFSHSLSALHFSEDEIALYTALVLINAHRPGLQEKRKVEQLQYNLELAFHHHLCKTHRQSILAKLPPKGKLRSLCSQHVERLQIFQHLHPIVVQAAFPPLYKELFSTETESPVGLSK
UniProt P28702: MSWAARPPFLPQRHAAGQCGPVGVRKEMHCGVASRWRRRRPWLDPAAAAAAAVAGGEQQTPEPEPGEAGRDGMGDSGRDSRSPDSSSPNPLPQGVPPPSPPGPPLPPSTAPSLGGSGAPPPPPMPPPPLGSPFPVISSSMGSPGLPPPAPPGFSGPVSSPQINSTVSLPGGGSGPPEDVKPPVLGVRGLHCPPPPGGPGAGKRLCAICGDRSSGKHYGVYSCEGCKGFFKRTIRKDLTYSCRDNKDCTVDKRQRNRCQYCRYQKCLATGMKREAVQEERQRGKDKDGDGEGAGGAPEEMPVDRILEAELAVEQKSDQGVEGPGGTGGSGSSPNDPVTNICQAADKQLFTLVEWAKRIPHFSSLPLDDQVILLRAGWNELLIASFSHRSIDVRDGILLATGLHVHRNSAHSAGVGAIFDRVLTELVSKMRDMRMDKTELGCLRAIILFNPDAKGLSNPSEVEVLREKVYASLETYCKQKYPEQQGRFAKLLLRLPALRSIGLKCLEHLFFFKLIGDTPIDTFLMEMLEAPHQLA
UniProt O75469: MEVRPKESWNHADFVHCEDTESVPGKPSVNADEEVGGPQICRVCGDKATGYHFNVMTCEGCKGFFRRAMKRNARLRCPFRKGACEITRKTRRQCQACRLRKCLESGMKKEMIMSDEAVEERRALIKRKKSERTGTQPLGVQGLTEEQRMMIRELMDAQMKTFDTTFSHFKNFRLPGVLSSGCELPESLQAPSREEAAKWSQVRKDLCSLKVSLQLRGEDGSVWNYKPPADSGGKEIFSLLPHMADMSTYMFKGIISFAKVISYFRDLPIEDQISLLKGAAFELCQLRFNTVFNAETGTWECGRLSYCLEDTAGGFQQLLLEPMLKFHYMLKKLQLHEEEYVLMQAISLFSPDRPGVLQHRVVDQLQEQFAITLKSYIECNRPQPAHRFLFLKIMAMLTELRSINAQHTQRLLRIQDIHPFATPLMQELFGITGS
UniProt P13631, whole entry, looked up: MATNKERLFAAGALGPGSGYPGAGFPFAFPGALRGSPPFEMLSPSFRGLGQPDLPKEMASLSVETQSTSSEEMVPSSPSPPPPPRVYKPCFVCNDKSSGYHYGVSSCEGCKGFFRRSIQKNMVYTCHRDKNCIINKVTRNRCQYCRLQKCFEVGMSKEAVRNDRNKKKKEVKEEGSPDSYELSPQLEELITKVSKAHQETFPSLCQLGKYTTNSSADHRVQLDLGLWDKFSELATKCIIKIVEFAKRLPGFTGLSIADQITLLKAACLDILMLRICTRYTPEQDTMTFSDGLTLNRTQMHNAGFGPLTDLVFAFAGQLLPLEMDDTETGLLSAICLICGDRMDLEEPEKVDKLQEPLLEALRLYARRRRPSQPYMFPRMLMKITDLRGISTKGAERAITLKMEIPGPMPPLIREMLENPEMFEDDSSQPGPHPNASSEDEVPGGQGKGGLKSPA
UniProt P11473: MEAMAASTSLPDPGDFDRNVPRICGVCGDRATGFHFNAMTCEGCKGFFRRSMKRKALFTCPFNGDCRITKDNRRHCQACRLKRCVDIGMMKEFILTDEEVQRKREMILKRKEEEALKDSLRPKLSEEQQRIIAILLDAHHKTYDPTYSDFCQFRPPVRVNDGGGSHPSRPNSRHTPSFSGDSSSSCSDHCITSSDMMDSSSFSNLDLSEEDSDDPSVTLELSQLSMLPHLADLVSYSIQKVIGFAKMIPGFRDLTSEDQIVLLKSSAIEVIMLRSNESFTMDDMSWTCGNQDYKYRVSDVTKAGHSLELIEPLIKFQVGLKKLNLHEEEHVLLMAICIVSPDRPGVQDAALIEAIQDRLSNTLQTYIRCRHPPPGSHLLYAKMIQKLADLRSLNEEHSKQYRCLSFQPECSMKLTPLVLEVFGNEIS
UniProt P19793: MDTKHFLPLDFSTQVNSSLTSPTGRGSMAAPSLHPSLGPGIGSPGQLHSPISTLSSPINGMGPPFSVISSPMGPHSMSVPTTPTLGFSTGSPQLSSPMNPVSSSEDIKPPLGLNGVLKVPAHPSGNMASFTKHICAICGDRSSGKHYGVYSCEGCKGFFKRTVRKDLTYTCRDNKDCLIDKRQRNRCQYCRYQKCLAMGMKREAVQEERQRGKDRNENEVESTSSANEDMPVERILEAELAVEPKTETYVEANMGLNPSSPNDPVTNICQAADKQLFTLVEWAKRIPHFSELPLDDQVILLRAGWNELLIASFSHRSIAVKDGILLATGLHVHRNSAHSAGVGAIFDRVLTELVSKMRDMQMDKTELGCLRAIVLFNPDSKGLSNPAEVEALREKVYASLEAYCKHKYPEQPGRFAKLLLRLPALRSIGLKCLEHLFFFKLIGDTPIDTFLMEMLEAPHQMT
UniProt P10827: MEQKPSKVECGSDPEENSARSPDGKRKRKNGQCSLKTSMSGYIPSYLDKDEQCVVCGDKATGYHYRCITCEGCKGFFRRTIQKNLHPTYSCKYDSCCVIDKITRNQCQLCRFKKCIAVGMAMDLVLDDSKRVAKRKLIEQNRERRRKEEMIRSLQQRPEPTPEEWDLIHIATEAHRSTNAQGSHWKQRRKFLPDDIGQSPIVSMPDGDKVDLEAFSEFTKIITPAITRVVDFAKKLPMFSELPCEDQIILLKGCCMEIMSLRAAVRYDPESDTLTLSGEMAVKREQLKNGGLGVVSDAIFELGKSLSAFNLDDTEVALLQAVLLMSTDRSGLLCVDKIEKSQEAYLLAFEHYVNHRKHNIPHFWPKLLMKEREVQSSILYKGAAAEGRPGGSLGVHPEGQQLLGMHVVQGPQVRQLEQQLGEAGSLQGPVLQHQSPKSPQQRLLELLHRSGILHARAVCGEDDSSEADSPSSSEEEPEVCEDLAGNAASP

Experiments:
[1] = target: Retinoic acid receptor alpha (Homo sapiens) (UniProt P10276); assay: ATG_RARa_TRANS: Attagene TRANS-FACTORIAL HepG2 Assay for human Retinoic Acid Receptor alpha (RARa) (AID 2283005);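 on AC50: potency for increased reporter signal meaning RARa activation over DMSO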
Procedure, shortened: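 HepG2 cells transiently transfected with multiple reporter units expressing chimeric RARα-GAL4 fusion, with GAL4-UAS-driven reporters. After 24 h compound exposure, reporter mRNA induction quantified by RT-PCR and capillary electrophoresis with fluorescent labeling; gain-of-signal fitted relative to DMSO control.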

[2] = target: Peroxisome proliferator-activated receptor gamma (Homo sapiens) (UniProt P37231); assay: ATG_PPARg_TRANS: Attagene TRANS-FACTORIAL HepG2 Assay for human Peroxisome Proliferator-activated Receptor-gamma (PPARg) (AID 2283007)
Procedure, shortened: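 Endpoint reflects upward reporter mRNA change versus DMSO controls. Setup: transiently transfected HepG2, GAL4-UAS reporters driven by chimeric NR-Gal4, 24 h incubation, RT-PCR with capillary electrophoresis read-out.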

[3] = target: human RAR-related Orphan Receptor beta (RORb), RORB (gene 6096) (UniProt Q92753); assay: ATG_RORb_TRANS: Attagene TRANS-FACTORIAL HepG2 Assay for human RAR-related Orphan Receptor beta (RORb) (AID 2283010);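 on AC50: potency for increased reporter mRNA meaning activation of RORb-Gal4 chimera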
Procedure, shortened: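 HepG2 cells transiently transfected with GAL4-UAS reporter units expressing chimeric NR-Gal4 protein; reporter mRNA measured 24 h after dosing by RT-PCR, 6-FAM labelling and capillary electrophoresis. Gain-of-signal fitted relative to DMSO baseline.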

[4] = target: human RAR-related Orphan Receptor gamma (RORg), RORC (gene 6097) (UniProt P51449); assay: ATG_RORg_TRANS: Attagene TRANS-FACTORIAL HepG2 Assay for human RAR-related Orphan Receptor gamma (RORg) (AID 2283011);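 on AC50: potency for induction of reporter transcripts above DMSO so activators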
Procedure, shortened: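 Activity is scored as increase in GAL4-UAS reporter mRNA over DMSO, detected by fluorescent RT-PCR and capillary electrophoresis in HepG2 cells transiently expressing a RORg-Gal4 chimera, 24 h after dosing.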

[5] = target: human Retinoid X Receptor beta (RXRb), RXRB (gene 6257) (UniProt P28702); assay: ATG_RXRb_TRANS: Attagene TRANS-FACTORIAL HepG2 Assay for human Retinoid X Receptor beta (RXRb) (AID 2283013)
Procedure, shortened: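 HepG2 cells were transiently transfected with multiplexed GAL4-UAS reporters and a chimeric RXRb-Gal4 construct, then exposed for 24 h. Reporter mRNA was quantified by RT-PCR, FAM labeling, HpaI digestion and capillary electrophoresis; gain of signal was scored against DMSO.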

[6] = target: Nuclear receptor subfamily 1 group I member 2 (Homo sapiens) (UniProt O75469); assay: ATG_PXR_TRANS: Attagene TRANS-FACTORIAL HepG2 Assay for human Pregnane X Receptor (PXR) (AID 2283008)
Procedure, shortened: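 HepG2 cells transiently transfected with GAL4-UAS reporter units and PXR-Gal4 chimera, exposed 24 h. Reporter mRNA quantified by RT-PCR, fluorescent labelling, HpaI digestion and capillary electrophoresis; gain of signal vs DMSO.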

[7] = target: human Retinoic Acid Receptor gamma (RARg), RARG (gene 5916) (UniProt P13631); assay: ATG_RARg_TRANS: Attagene TRANS-FACTORIAL HepG2 Assay for human Retinoic Acid Receptor gamma (RARg) (AID 2283009);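 on AC50: AC50 is for reporter induction above DMSO meaning RARg activation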
Procedure, shortened: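 HepG2 transiently transfected with GAL4-UAS reporter units and chimeric NR-Gal4 constructs; 24 h compound exposure. Reporter mRNA quantified by RT-PCR, FAM labeling, HpaI digestion and capillary electrophoresis; gain-of-signal versus DMSO.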

[8] = target: human Vitamin D Receptor (VDR), VDR (gene 7421) (UniProt P11473); assay: ATG_VDR_TRANS: Attagene TRANS-FACTORIAL HepG2 Assay for human Vitamin D Receptor (VDR) (AID 2283022)
Procedure, shortened: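 Fluorescence of labelled reporter cDNA fragments, resolved by capillary electrophoresis, gives mRNA induction after 24 h treatment of HepG2 cells carrying transfected Gal4-fusion reporter units. Activity is fitted in the positive direction with DMSO as baseline.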

[9] = target: Retinoic acid receptor RXR-alpha (Homo sapiens) (UniProt P19793); assay: ATG_RXRa_TRANS: Attagene TRANS-FACTORIAL HepG2 Assay for human Retinoid X Receptor alpha (RXRa) (AID 2283012)
Procedure, shortened: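 HepG2 cells transiently transfected with GAL4-UAS reporter units and chimeric RXRa-Gal4 protein, treated 24 h. Reporter mRNA measured by RT-PCR, fluorescent labelling, HpaI digestion and capillary electrophoresis. Induction fitted against DMSO.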

[10] = target: human Thyroid Receptor alpha (THRa1), THRA (gene 7067) (UniProt P10827); assay: ATG_THRa1_TRANS: Attagene TRANS-FACTORIAL HepG2 Assay for human Thyroid Receptor alpha (THRa1) (AID 2283014)
Procedure, shortened: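 First, HepG2 cells receive multiple GAL4-UAS reporter units and the chimeric receptor. They are then dosed for 24 h, after which RNA is reverse-transcribed, amplified, labelled, HpaI-cut and sized by capillary electrophoresis; gain relative to DMSO is scored.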

CC=CCO
AC50 [1]: inconclusive: 100 µM | AC50 [2]: inconclusive: 100 µM | AC50 [3]: inconclusive: 0.0743 µM | outcome [4]: inactive | outcome [5]: inactive

NCC(F)(F)C(F)(F)C(F)(F)C(F)(F)C(F)(F)C(F)(F)C(F)(F)C(F)(F)F
outcome [1]: inactive | outcome [6]: inactive | outcome [7]: inactive | AC50 [3]: inconclusive: 33.4 µM | AC50 [4]: inconclusive: 33.4 µM

CCCCCCC(C)(C)C(=O)O
outcome [1]: inactive | AC50 [2]: active: 46.3 µM | AC50 [3]: inconclusive: 0.2 µM | outcome [4]: inactive | AC50 [9]: inconclusive: 180 µM | outcome [10]: inactive | AC50 [8]: inconclusive: 100 µM

ClC1=C(Cl)C(Cl)(Cl)C(Cl)=C1Cl
AC50 [1]: inconclusive: 9.08 µM and inconclusive: 11.1 µM | AC50 [6]: inconclusive: 11.1 µM | AC50 [7]: inconclusive: 11.1 µM | outcome [7]: inactive | AC50 [3]: inconclusive: 11.1 µM and inconclusive: 5.5 µM | AC50 [4]: inconclusive: 1.02 nM and inconclusive: 3.91 µM | outcome [9]: inactive | AC50 [5]: active: 17.5 µM | AC50 [10]: inconclusive: 11.1 µM

O=C(O)CCCC[C@@H]1SC[C@@H]2NC(=O)N[C@@H]21
outcome [1]: inactive | outcome [6]: inactive | AC50 [7]: inconclusive: 100 µM | outcome [3]: inactive | AC50 [4]: inconclusive: 100 µM

C=Cc1ccc(O)c(OC)c1
outcome [1]: inactive | AC50 [2]: active: 8.33 µM | outcome [5]: inactive

C=C(C)CCO
outcome [1]: inactive | AC50 [2]: inconclusive: 0.404 µM | outcome [3]: inactive | AC50 [5]: active: 63.9 µM | AC50 [8]: inconclusive: 0.344 µM

COc1nc(C)nc(NC(=O)NS(=O)(=O)c2ccccc2OCCCl)n1
AC50 [1]: inconclusive: 100 µM and inconclusive: 25.6 µM | AC50 [6]: active: 40 µM | outcome [6]: inactive | AC50 [7]: inconclusive: 100 µM | AC50 [3]: inconclusive: 100 µM and inconclusive: 12.3 µM | AC50 [4]: inconclusive: 100 µM and inconclusive: 15.3 nM | outcome [9]: inactive | AC50 [5]: inconclusive: 100 µM | outcome [5]: inactive | AC50 [10]: inconclusive: 100 µM and inconclusive: 762 nM | AC50 [8]: inconclusive: 25.6 µM | outcome [8]: inactive

O=C(Nc1ccc2c(O)c(N=Nc3ccc(N=Nc4ccc(S(=O)(=O)O)cc4)cc3)c(S(=O)(=O)O)cc2c1)c1ccccc1
AC50 [1]: inconclusive: 74.3 µM | outcome [6]: inactive | AC50 [7]: inconclusive: 100 µM | AC50 [3]: inconclusive: 100 µM | AC50 [4]: inconclusive: 0.536 µM

COc1ccc(C#N)cc1
AC50 [1]: inconclusive: 100 µM | outcome [6]: inactive | outcome [7]: inactive | outcome [3]: inactive | AC50 [4]: inconclusive: 100 µM | AC50 [9]: inconclusive: 100 µM | AC50 [5]: inconclusive: 100 µM | AC50 [10]: inconclusive: 100 µM | outcome [8]: inactive

C=C(C)[C@@H]1CCC2=CCC[C@@H](C)[C@]2(C)C1
AC50 [1]: inconclusive: 39.9 µM | AC50 [6]: active: 2.72 µM | AC50 [7]: inconclusive: 27 µM | AC50 [3]: inconclusive: 100 µM | AC50 [4]: inconclusive: 181 µM | AC50 [9]: inconclusive: 100 µM | AC50 [5]: active: 47.6 µM | outcome [8]: inactive

O=C(O)C(F)(F)C(F)(F)C(F)(F)C(F)(F)C(F)(F)C(F)(F)C(F)(F)C(F)(F)C(F)(F)C(F)F
AC50 [1]: inconclusive: 24.4 µM | AC50 [6]: active: 64.5 µM | outcome [7]: inactive | outcome [3]: inactive | AC50 [4]: active: 50 µM | AC50 [9]: inconclusive: 79.7 µM | AC50 [8]: inconclusive: 0.782 µM
